Patent US20100285038A1, “Factor Involved in Metastasis and Uses Thereof” (priority 2002, published 2010)
For at least one compound, name, drawing or mass did not settle the structure.

Test system: PC3 cells
Experiment: Lymph node metastasis in orthotopic PC-3 mouse model after treatment with rapamycin (Rapamune)
Type: in vivo, Nude Shoe:NMRI-nu/nu mice

## CO[C@H]1C[C@@H]2CC[C@@H](C)[C@@](O)(O2)C(=O)C(=O)N2CCCC[C@H]2C(=O)O[C@H]([C@H](C)C[C@@H]2CC[C@@H](O)[C@H](OC)C2)CC(=O)[C@H](C)/C=C(\C)[C@@H](O)[C@@H](OC)C(=O)[C@H](C)C[C@H](C)/C=C/C=C/C=C/1C [Rapamune, rapamycin]
Established tumor model, oral treatment days 29 to 50 after implantation, doses 2 mg/kg and 0.4 mg/kg
  extent of lymph node metastasis: same results were basically also obtained
Tumor take model, 0.4 mg/kg/dose intraperitoneally daily for 28 days from day 1, expressed as mm^3, compared to phosphate buffered saline
  extent of lymph node metastasis: tremendous decrease
Tumor take model, 2 mg/kg/dose intraperitoneally daily for 28 days from day 1, expressed as mm^3, compared to phosphate buffered saline
  extent of lymph node metastasis: tremendous decrease
